The values below are quoted from earlier work in patent publication US20110104137A1, “ADJUNCTS AND COMPLEXES FOR IMPROVING HMG-CoA REDUCTASE INHIBITOR (STATIN) AND SELECTIVE PHOSPHODIESTERASE 5 INHIBITOR THERAPY” (ChronoRX LLC, an Alaska Limited Liability Company, priority 2009, published 2011).

Series [1] relates to ADMA.
The subject of series [2] is apoB-100. The note with it: high-dose.

On to `CC(C)c1c(C(=O)Nc2ccccc2)c(-c2ccccc2)c(-c2ccc(F)cc2)n1CC[C@@H](O)C[C@@H](O)CC(=O)O` [atorvastatin], for which the “effect on plasma ADMA, contradictory study” value in series [1] (contradictory study (201)) was “decrease in plasma ADMA”. Besides, in series [1] (in vivo), the “effect on plasma ADMA” value is listed as “no effect”. Further, in series [2], the “total plasma levels of oxidized phospholipids and immune complexes on apoB-100” value is “reduces total plasma levels of oxidized phospholipids and immune complexes present on apoB-100”.
